From PubChem BioAssay AID2003 (Broad Institute, 2009) come the findings set out here.

The other results are listed elsewhere or left out. Measured potencies and affinities stand elsewhere. Where no call is shown, the source marks the result inconclusive.

A short description of the assay: PubChem AID 2003. The following applies: H4 cells, SNCA 5'UTR luciferase reporter, luminescence; at 12 µM (top of the series) unless noted. (In a reporter assay the amount or activity of a reporter protein is the signal.)
`Cn1ccnc1SCC(=O)c1c[nH]c2ccccc12`: the activation is 24.5%.

Take `CC(=O)c1sc2nc(-c3cccs3)ccc2c1N`: the activation came out at 68.7%.

`CN=c1scc(-c2ccco2)n1/N=C/c1ccc(O)c(O)c1`: the activation is 104%.

On to `Cc1c(C(=O)N2CCOCC2)sc2nc(-c3ccccc3)cn12`, for which the activation was found to be 59.2%.

`O=C(N/N=C/c1ccc2c(c1)OCO2)c1ccc(Br)o1`: the activation is 80.8%.

On to `CCCn1c(C)cc(C(=O)COc2ncnc3sccc23)c1C`, for which the activation worked out at 34%.

In the case of `CCOC(=O)c1sc(NC(=O)C(C)(C)C)cc1C`, the activation turned out to be 105%.

Turning to `Cc1cc(C(=O)COC(=O)C2=COCCO2)c(C)n1-c1cccc(F)c1`, the activation was -11.2%.

In the case of `COc1ccc2c(c1OC)C(=O)N1c3ccccc3SC21` (stereo not given), the activation amounted to 45.5%.

On to `Cn1cccc1CNC(=O)Nc1ccc(Cl)c(Cl)c1`, for which the activation worked out at 79.4%.

Take `O=C(Nc1nnc(C2CC2)s1)C1Cc2ccccc2CN1S(=O)(=O)c1ccccc1F` (stereo not given): the activation was found to be 33.9%.

Consider `O=C(Nc1cccnc1)c1cc(-c2cc(Cl)ccc2O)n[nH]1`, for which the activation worked out at 174%.

As for `Cc1cccc(Nc2nnc(SCC3CCCCO3)s2)c1` (stereo not given), the activation was 76.9%.

Take `CN1C(=O)/C(=C/C=C2\SCCN2C)N(C)C1=S`: the activation amounted to 76.8%.

For `Cc1ccc(NC(=O)NCC2CC2(Cl)Cl)cc1` (stereo not given), the activation stood at 48.1%.

In the case of `O=C(Nc1cccc(Cl)c1)c1cnn2cccnc12`, the activation is 98.6%.

Consider `OCCCN1c2ccccc2Nc2nnc(-c3ccccc3)cc21`, for which the activation came out at 129%.

For the compound `Cc1cc(=O)oc2cc(OCC3CC(c4ccccc4Cl)=NO3)ccc12` (stereo not given), the activation was -36%.

With `CCOc1ccc(N2C(=O)/C(=C/c3ccccc3)N=C2SC)cc1`, the activation was 12.7%.

In the case of `COCc1nc2oc3ccc(C)cc3c(=O)c2cc1C(=O)OC`, the activation is 87.3%.

Take `Nc1c(C(=O)N2CCCCC2)sc2nc3c(cc12)CCCC3`: the activation worked out at 49.6%.

Turning to `CC(C)N=C1NN=C(c2ccc(Cl)c(Cl)c2)CS1`, the activation was found to be 29.9%.

`Cn1ncc2c(Nc3ccc4ccccc4c3)ncnc21`: the activation was determined as 104%.

In the case of `COc1ccc(N2Cc3ccc(OC)c(OC)c3C2=O)cc1`, the activation was determined as 22.5%.

In the case of `Cc1ccc(NC(=O)CCOc2ccccc2)cc1`, the activation came to 62.1%.

With `N#Cc1c(N2CCOCC2)nsc1-c1ccc(C(F)(F)F)cc1`, the activation came to 53.5%.

Turning to `COc1ccc(-c2ncc3ccccn23)cc1`, the activation worked out at 47.2%.

Regarding `Clc1ccc2nnnc(-c3ccccc3)c2c1`, the activation was determined as 17.2%.

Take `COc1cc2sc3ccc(-c4ccc5[nH]ccc5c4)cc3c(=O)c2cc1OC`: the activation came out at 64.6%.

With `Oc1cccc2c(NC(=S)Nc3ccc(OC(F)F)cc3)cccc12`, the activation was 18.3%.

`COc1ccc(/C=C2\OC(=O)c3c(OC)cccc32)cc1OC`: the activation came out at 65.3%.

In the case of `COc1ccc(/C=C/C2=NC(=C\N(C)C)/C(=O)O2)cc1`, the activation was 71.3%.

In the case of `CC1CC1C(=O)OCc1cc(=O)n2cc(Br)ccc2n1` (stereo not given), the activation worked out at 29.8%.

As to `O=c1cccccc1NN=C1CCCCCC1`, the activation was determined as 77.7%.

For `C/C(=N\Nc1nc2c(s1)CCCC2)c1ccccc1`, the activation came out at 72.1%.
